Experiment: general procedure: solution-phase peptide synthesis; HATU
Conditions: for conjugation yield: conjugation step

Substance: 2-((2-(((S)-1-((2-(((S)-4-ethyl-8-fluoro-4-hydroxy-3,14-dioxo-3,4,12,14-tetrahydro-1H-pyrano[3′,4′:6,7]indolizino[1,2-b]quinolin-9-yl)amino)-2-oxoethyl)amino)-1-oxo-3-phenylpropan-2-yl)amino)-2-oxoethyl)amino)-2-oxoethan-1-aminium
- step yield (coupling step): 88% yield

Substance: (9H-fluoren-9-yl)methyl ((7S)-1-((3-azabicyclo[3.1.1]heptan-6-yl)oxy)-7-benzyl-3,6,9,12-tetraoxo-2,5,8,11-tetraazatridecan-13-yl)carbamate
- step yield (late stage modification step): 46% yield

Substance: (9H-fluoren-9-yl)methyl (S)-(9-benzyl-1-(3-fluoroazetidin-3-yl)-5,8,11,14-tetraoxo-2-oxa-4,7,10,13-tetraazapentadecan-15-yl)carbamate
- step yield (late stage modification step): 54% yield

Substance: (S)-16-amino-10-benzyl-6,9,12,15-tetraoxo-3-oxa-5,8,11,14-tetraazahexadecyl (((S)-4-ethyl-8-fluoro-4-hydroxy-9-methyl-3,14-dioxo-3,4,12,14-tetrahydro-1H-pyrano[3′,4′:6,7]indolizino[1,2-b]quinolin-11-yl)methyl)carbamate
- conjugation yield (TFA salt): 39% yield

Substance: tert-butyl (2-((2-(((S)-1-((2-(((S)-4-ethyl-8-fluoro-4-hydroxy-3,14-dioxo-3,4,12,14-tetrahydro-1H-pyrano[3′,4′:6,7]indolizino[1,2-b]quinolin-9-yl)amino)-2-oxoethyl)amino)-1-oxo-3-phenylpropan-2-yl)amino)-2-oxoethyl)amino)-2-oxoethyl)carbamate
- conjugation yield: 17% yield

Substance: tert-butyl (((S)-9-(2-((S)-2-(2-(2-aminoacetamido)acetamido)-3-phenylpropanamido)acetamido)-4-ethyl-8-fluoro-4-hydroxy-3,14-dioxo-3,4,12,14-tetrahydro-1H-pyrano[3′,4′:6,7]indolizino[1,2-b]quinolin-11-yl)methyl)carbamate
- step yield (coupling step, TFA salt): 64% yield

Source: patent US12433952B2 (ZYMEWORKS BC INC., priority 2022, dated 2025)
